Values of other authors, collected in patent publication US5439687A, “Dosage forms having zero-order dihydropyridine calcium antagonist release” (priority 1992, dated 1995).

Tests used:
[1] = not given; remark: listed apart in the source

SMILES | Plasma level peak (20 mg) | Time of plasma level peak (20 mg crystalline) | Absorption of crystalline nifedipine (words) | Maximum soluble in 1000 ml of simulated gastric or intestinal fluid [1]
COC(=O)C1=C(C)NC(C)=C(C(=O)OC)C1c1ccccc1[N+](=O)[O-] [crystalline nifedipine, nifedipine] | about 40 ng/ml | about 1.5 hours | absorbed so slowly that the pharmacokinetic elimination rate exceeds the absorption rate | –
COC(=O)C1=C(C)NC(C)=C(C(=O)OC)C1c1ccccc1[N+](=O)[O-] [nifedipine] | – | – | – | ≤ 10 mg
